Laboratory results: publication PMC10401708, “Enzymatic Hydroxylation of Aliphatic C–H Bonds by a Mn/Fe Cofactor” (Journal of the American Chemical Society, 2023)

Molecular target: AibH1 subunit of AibH1H2, expressed from pET-Duet-AibH1H2 with the GroEL/ES-TF chaperones (Rhodococcus wratislaviensis)
Assay: crystal structure; sitting-drop vapor diffusion at room temperature in an anaerobic chamber; co-expressed, co-purified AibH1H2 at 6 mg/mL; molecular replacement with PDB 6M2I; both purified

- binding: binds
Substance: AibH2 subunit of the 2-aminoisobutyric acid hydroxylase AibH1H2 (from UniProt A0A402C2Q3)

Results are given in words; binding and its absence hold for the method and conditions named. Binding seen in cells or lysates may run through a third protein. Binding calls can cover weak binding; strength is not graded here.
